A word on the AC50: it is the midpoint of the concentration-response curve, whichever way the signal moves.

This assay in a line: qHTS Assay for Lipid Storage Modulators in Drosophila S3 Cells.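 For cell number change: cells counted by Cell Tracker Red CMTPX staining in the red channel.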 Particulars: BODIPY lipid droplet fluorescence, 18-24 h; for cell number change: measured here: cell count max response, cells fed with added oleic acid. The essentials:
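Drosophila S3 cells loaded with oleic acid (400 uM, as added) and compounds at several concentrations; lipid droplets imaged by 488-nm laser-scanning cytometry, 500–530 nm intensity and object ratio to cell channel. Percent activity normalized to 20 uM Triacsin C.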
(In general: In qHTS, concentration-response curves come from the screen itself.)

[1] abbreviates: measured here: lipid fluorescence (Fed channel) AC50, cells fed with added oleic acid.
The mark [2] stands for this setting: measured here: cell number channel AC50, cells fed with added oleic acid.

Structures are written as SMILES. The list shows a part of the results. Shown are side measurements of this screen, not its main read-out; they come without a call. Compounds called inactive in the main read-out are mostly missing here. Potencies come from curve fits of mixed quality, noted in brackets.

For the compound `Cc1cccc(NC(=O)COC(=O)c2ccccn2)c1`, the cell number change was -2.94%. For the same compound, the concentration at half-maximal activity (AC50) under setting [1] was 6.51 µM [rising, single point].
`C/C(=N\Nc1nc(C)cc(C)n1)c1ccc(C)o1`: the cell number change is 35.1%. The AC50 under setting [2] was 29.1 µM [rising, single point]. Further, the AC50 under setting [1] was 29.1 µM [rising, single point].
Consider `CCOC(=O)c1sc(NC(=O)c2ccc(C)o2)nc1C`, for which the cell number change was determined as 23.1%. The AC50 under setting [2] is 0.651 µM [rising, full curve, poor fit]. Besides, the AC50 under setting [1] is 1.84 µM [rising, full curve].
As to `CCN(C(=O)CSc1ncn[nH]1)C1CCCCC1`, the cell number change worked out at 37.4%. Moreover, the concentration at half-maximal activity (AC50) under setting [2] is 0.146 µM [rising, full curve, poor fit]. For the same compound, the AC50 under setting [1] was 0.517 µM [falling, full curve].
Consider `O=C(Nc1cccc2ccccc12)N1CC=CCC1`, for which the cell number change came to 21.3%. Moreover, under setting [1], the concentration at half-maximal activity (AC50) was 29.1 µM [rising, single point].
For `COc1ccc(OC(=O)c2cccnc2)cc1`, the cell number change was -30.5%. In addition, the concentration at half-maximal activity (AC50) under setting [2] is 18.4 µM [falling, single point].
Consider `CCc1ccc(S(=O)(=O)NCC2(N3CCOCC3)CCCCC2)cc1`, for which the cell number change is -6.19%. Also, under setting [1], the AC50 was 0.461 µM [rising, full curve, poor fit].
Turning to `COc1ccc(C(=O)N[C@H](C(=O)Nc2nc3c(s2)CCCC3)C(C)C)cc1`, the cell number change stood at 13.2%. Under setting [1], the concentration at half-maximal activity (AC50) is 6.51 µM [rising, full curve, poor fit].
As to `CC(C)CC(NC(=O)c1cccs1)c1nnc(SCc2ccc(Cl)c(Cl)c2)n1C` (stereo not drawn), the cell number change was -20.2%. The AC50 under setting [1] was 16.4 µM [falling, single point].
In the case of `Cn1c(C(=O)NCc2cccs2)cc2c(=O)n(C)c3ccccc3c21`, the cell number change was 15.5%. Besides, the half-maximal activity concentration (AC50) under setting [1] was 32.6 µM [rising, single point].
Take `Nc1c(S(=O)(=O)c2cccs2)c2nc3ccccc3nc2n1Cc1cccs1`: the cell number change was -14.1%.
Turning to `CCN(CC)CCN1C(=O)C(=O)/C(=C(/O)c2ccc(S(=O)(=O)N3CCOCC3)cc2)C1c1ccccc1` (stereo not drawn), the cell number change worked out at 14.7%. The AC50 under setting [1] is 0.116 µM [rising, full curve, poor fit].
For the compound `O=C(CCS(=O)(=O)c1cccc2nonc12)Nc1cccc2c1CCCC2`, the cell number change is 33.4%. In addition, the AC50 under setting [2] was 29.1 µM [rising, single point]. Moreover, the AC50 under setting [1] was 29.1 µM [rising, single point].
For the compound `CC(Oc1ccc(Cl)cc1)C(=O)N(C)CC(=O)Nc1ccc(N2CCOCC2)cc1` (stereo not drawn), the cell number change came out at 27%. Besides, the AC50 under setting [1] is 18.4 µM [rising, partial curve].
For `CCOC(=O)c1cc(-c2ccncc2)nc2c1c(C)nn2C`, the cell number change was -83%. Besides, the AC50 under setting [2] is 16.4 µM [falling, single point]. For the same compound, the AC50 under setting [1] was 9.2 µM [rising, partial curve, poor fit].
As to `Cc1cccc(/C=N\NC(=O)c2ccccc2-n2cccc2)c1`, the cell number change is -50.3%. The AC50 under setting [2] is 32.6 µM [falling, single point]. The AC50 under setting [1] was 29.1 µM [falling, single point].
Turning to `COc1ccc(NC(=O)C2CCCN(c3nn4c(=O)cc(C)nc4s3)C2)c(OC)c1` (stereo not drawn), the AC50 under setting [2] is 5.8 µM [falling, single point].
Consider `O=C(Nc1ccc(OC(F)(F)F)cc1)c1cnccn1`, for which the cell number change was -28.8%. The AC50 under setting [1] was 6.51 µM [rising, single point].
Regarding `O=C(Cn1c(=O)[nH]c2ccsc2c1=O)N1CCN(c2ccc(F)cc2)CC1`, the cell number change turned out to be 36.1%. The concentration at half-maximal activity (AC50) under setting [1] is 29.1 µM [rising, single point].
Turning to `Cc1cccc(N(C(=O)c2snc(C(N)=O)c2N)C(C(=O)NCC2CCCO2)c2ccc(N(C)C)cc2)c1C` (stereo not drawn), the cell number change was 24.8%.
Regarding `Cc1ccc(F)cc1NC(=O)C1CCN(c2cnccn2)CC1`, the cell number change came to 4.15%. For the same compound, the AC50 under setting [2] was 0.0058 µM [rising, full curve, poor fit].
Consider `CN(C)S(=O)(=O)c1cccc(NC(=O)c2cc(=O)[nH]c(=O)[nH]2)c1`, for which the cell number change amounted to 53.5%. The half-maximal activity concentration (AC50) under setting [2] is 29.1 µM [rising, single point].
As for `Cc1ccc(NC(=O)C2CCN(S(=O)(=O)c3cnc[nH]3)CC2)nc1`, the cell number change is -3.85%. Under setting [2], the concentration at half-maximal activity (AC50) is 0.731 µM [falling, single point].
With `O=C(NCC(=O)N(CC1CCCO1)C(C(=O)NC1CCCC1)c1cccnc1)c1ccco1` (stereo not drawn), the half-maximal activity concentration (AC50) under setting [2] is 2.31 µM [rising, single point].
On to `CC(=O)c1c(C)nc2ccccc2c1N`, for which the cell number change was -10.8%. In addition, the half-maximal activity concentration (AC50) under setting [2] is 0.731 µM [falling, full curve]. For the same compound, under setting [1], the half-maximal activity concentration (AC50) was 3.26 µM [falling, full curve].
Take `COc1ccccc1-n1cc(-c2ccc(C)cc2)[nH]c1=S`: the cell number change was found to be 8.45%. For the same compound, the concentration at half-maximal activity (AC50) under setting [1] is 2.59 µM [rising, single point].
For the compound `Cc1ccsc1C(=O)N(Cc1nnc(-c2ccccc2Cl)o1)C1CC1`, the cell number change was 34.5%. In addition, the half-maximal activity concentration (AC50) under setting [2] is 0.517 µM [rising, full curve, poor fit].
On to `COc1ccc(C(=O)CC(=O)Nc2ccc([N+](=O)[O-])cc2)cc1`, for which the cell number change is -18.9%. Besides, the half-maximal activity concentration (AC50) under setting [1] was 11.6 µM [rising, partial curve].
As to `C=CCNC(=O)c1onc(CSc2ccc(F)cc2)c1C(=O)NCCOC`, the cell number change was -14.7%. Moreover, the AC50 under setting [1] is 0.731 µM [falling, single point].
`O=C(COC(=O)c1ccc(Br)o1)NC1CCCCC1`: the cell number change stood at 6.66%.
For the compound `COC(=O)c1sc(N)c(C(=O)OC)c1COC(=O)CCNS(=O)(=O)c1ccc(C)cc1`, the cell number change amounted to 4.03%. For the same compound, under setting [2], the AC50 was 0.0517 µM [rising, full curve, poor fit]. Also, under setting [1], the concentration at half-maximal activity (AC50) was 0.058 µM [rising, full curve].
For `O=C(NNS(=O)(=O)c1ccc(F)cc1)c1cnccn1`, the cell number change was -14.9%. In addition, the AC50 under setting [1] was 0.58 µM [rising, single point].
In the case of `COc1c(Cl)cccc1-c1cn2ccccc2n1`, the cell number change was determined as 23.6%. For the same compound, the AC50 under setting [1] is 0.461 µM [rising, full curve, poor fit].
As to `O=C(CN1C(=O)NC(c2ccccc2)(c2ccccc2)C1=O)N1CCOCC1`, the cell number change was 5.1%. Further, the concentration at half-maximal activity (AC50) under setting [1] is 6.51 µM [falling, single point].
For the compound `COc1ccc(OC)c(NC(=O)/C=C/c2ccc(S(=O)(=O)N3CCOCC3)cc2)c1`, the cell number change was 2.81%.
In the case of `CCOc1ccccc1/C=N/NC(=O)C[n+]1ccccc1`, the cell number change came to 1.3%. Also, the concentration at half-maximal activity (AC50) under setting [2] was 0.116 µM [falling, full curve, poor fit]. Moreover, the AC50 under setting [1] was 0.146 µM [falling, full curve, poor fit].
Regarding `COc1ccccc1CNC(=O)CCNC(=O)Cn1cnc2ccccc2c1=O`, the cell number change was -44.6%. Besides, the concentration at half-maximal activity (AC50) under setting [2] is 0.058 µM [falling, full curve]. Also, the half-maximal activity concentration (AC50) under setting [1] was 16.4 µM [falling, partial curve, poor fit].

The values are drawn from PubChem BioAssay AID2685 (National Center for Advancing Translational Sciences (NCATS), 2010).
